Here are results for two molecules from PMC7329144.

Results are given in words; binding and its absence hold for the method and conditions named. For part of these data: Binding can be weak; no strength is given. Where a sequence is shown, tags or fusion partners need not be part of it. For part of these data: Binding seen in cells or lysates may run through a third protein.

Experiment [1] deals with GST-Yrt (Yurt, isoform PA) (Drosophila). The experiment can be described thus: pull-down; GST-tagged proteins as baits, MBP-tagged Tctp as prey; 10 μg/mL of each; PDB buffer (20 mM Tris-HCl pH 7.5, 150 mM NaCl, 0.5 mM EDTA, 10% glycerol, 0.1% Triton X-100, 1 mM DTT); both purified.
Experiment [2] has as its target GST-Dlg (Discs-large, isoform PG) (Drosophila). The experiment is described as above.
In experiment [3] the target is GST-Yrt FA (FERM-adjacent region of Yurt) (Drosophila). The description is as above.
For experiment [4], the target named is GST-Yrt FERM (FERM region of Yurt) (Drosophila). Described as above.
In experiment [5] the target is GST-Crb^intra (intracellular domain of Crumbs) (Drosophila). Described as above.
The target in experiment [6] is GST-Cora (Coracle, isoform PC) (Drosophila). Described as above.
Experiment [7] has as its target GST-Yrt VR (variable region of Yurt) (Drosophila). Described as above.
For experiment [8], the target named is Flag-Yrt (Drosophila). The experiment can be described thus: co-IP; S2 cells transiently transfected with Flag- and Myc-tagged constructs, lysed 24 h after transfection; lysis buffer 20 mM HEPES pH 7.5, 100 mM KCl, 2.5 mM EDTA, 5% glycerol, 0.05% Triton X-100; immunoprecipitation at 4°C overnight.
The target of experiment [9] is Flag-Cora (Drosophila). The experiment is described as above.

B1: MBP-Tctp fusion protein (Drosophila translationally controlled tumor protein) (protein, UniProt Q9VGS2 1-172)
chain: MKIYKDIITGDEMFADTYKMKLVDDVIYEVYGKLITRQGDDIKLEGANASAEEADEGTDITSESGVDVVLNHRLTECFAFGDKKSYTLYLKDYMKKVLAKLEEKSPDQVDIFKTNMNKAMKDILGRFKELQFFTGESMDCDGMVALVEYREINGDSVPVLMFFKHGLEEEKC
As for B1, the binding result in experiment [1] is “binds”; in experiment [2], “no binding”; in experiment [3] it was “binds”; in [4], “binds”; in experiment [5], “no binding”; in experiment [6] it was “binds”. Further, the binding result in experiment [7] is recorded as “no binding”.

B2: Myc-Tctp (protein, UniProt Q9VGS2 1-172)
chain: B1 chain
Regarding B2, the binding result in experiment [8] and in experiment [9] was “binds” throughout.
